This is an account of results in patent US20220308045A1, “EXPANDABLE LIVER ORGANOIDS, MEDIA COMPOSITION FOR DIFFERENTIATION THEREOF, AND METHOD FOR PRODUCING LIVER ORGANOIDS USING THE SAME” (KOREA RESEARCH INSTITUTE OF BIOSCIENCE AND BIOTECHNOLOGY, priority 2019, published 2022).

The subject of the series is CYP3A4.

`COC(=O)C1=C(C)NC(C)=C(C(=O)OC)C1c1ccccc1[N+](=O)[O-]` [nifedipine]: the “expression amount of CYP3A4 on induction” value is “significantly increased”.
